Experimental data from the supplement of paper PMC3334620.
The full ranking holds about 33,000 sequences; the median of “E-score (-0.5 to 0.5)” is about -0.0059, and the highest 2% start at about 0.26. Some of the results follow.

What follows are sequences tested against T1, Cin5 (UniProt P40917) (assay: PBM E-score (8-mer binding enrichment) (E-score (-0.5 to 0.5)); higher = stronger / more preferred TF binding). Conditions: protein concentration: 100 nM; construct: GST-full length.
T1 sequence: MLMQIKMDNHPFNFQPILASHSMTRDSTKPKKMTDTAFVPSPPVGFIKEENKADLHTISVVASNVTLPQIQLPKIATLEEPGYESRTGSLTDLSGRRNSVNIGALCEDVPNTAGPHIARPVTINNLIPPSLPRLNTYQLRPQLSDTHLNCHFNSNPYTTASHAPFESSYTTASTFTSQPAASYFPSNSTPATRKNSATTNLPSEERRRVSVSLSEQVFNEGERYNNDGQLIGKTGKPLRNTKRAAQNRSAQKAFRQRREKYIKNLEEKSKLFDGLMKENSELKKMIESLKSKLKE
Method in brief: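 Each ungapped eight-base word and its reverse complement, pooled, received an E-score from the Universal PBM Analysis Suite. Underlying scans, normalised with masliner, recorded fluorescent anti-GST bound to GST-tagged yeast transcription factors. These were applied at about 100-200 nM to universal all-10-mer Agilent arrays double-stranded by primer extension.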

Sequence	PBM E-score
ACGTCATA	0.223
AACTGCCA	-0.0699
AGCGCATA	0.138
CCTTCGGA	-0.15
CGCTCAGA	-0.185
AGCATACG	-0.0285
ATCCCACG	-0.0682
CTTAGGTC	-0.0156
ATTGTGAG	0.0594
AATAGACG	0.0669
CCTCGCAG	-0.233
ACGCCAAT	0.0961
CCCTCATC	-0.0205
CTGTAAAG	-0.206
CATGCGAA	0.0234
CAGTCCGA	-0.0341
CCGTGGAG	-0.135
CCTGCCCA	-0.0452
CAGGCCGG	-0.342
ACGAAATA	0.192
GCCGTACC	-0.17
AAGGCGTC	-0.257
TAGATACA	0.108
AACCACAG	0.00497
ACCATGCC	-0.124

Sequence	PBM E-score
GTCGAGGA	-0.24
GAAATATA	0.287
CAAGAGAG	-0.114
CGCCTGTC	-0.193
CAGTCAGG	-0.123
ATCGTCAG	-0.107
CTACTGCA	-0.28
ATCACTGA	-0.082
GACCTGGA	-0.208
AACCTCCT	-0.168
AAAGAATG	0.058
GCCCCACC	0.172
AGTGGCCC	-0.134
CAATCCGA	0.17
AGCCTAAC	-0.136
AGGTCATA	-0.00463
GGACTAAC	-0.232
CAGTCGAG	-0.24
ACATAAAT	0.28
CCGAGCTC	-0.033
AGCAACAT	0.0103
CCAGTGCA	-0.0977
AGAAGATC	0.0141
CCCCGGGA	0.0124
ACTACCCA	-0.0496

Sequence	PBM E-score
CCTGCGGC	-0.34
AAACCACC	-0.0113
GGCCCAGA	-0.304
AAGCCGAT	0.125
TTACAAAA	0.256
ATAATCAC	0.233
CCTCGTCC	-0.229
CCTCTGAA	-0.0862
GGTATGAC	-0.0978
ATATGTTC	0.139
CCGTGCTC	0.0121
TGAGATAA	0.251
CTCTGATC	-0.162
ATCCAAGA	0.0243
CATGCTGG	-0.136
ACTTCGAC	-0.0554
CGCCAAAA	0.0561
ACGACAGA	-0.0343
GACGAGCA	-0.0935
ACTCCGCG	0.0856
GTGGAATA	0.193
ACCGGCGC	0.0762
ATGTTGTG	0.151
CATTCTTA	0.155
AGGAACTG	-0.124

Sequence	PBM E-score
ACCGCCAA	-0.0388
TATTCCAA	0.0259
GTGGCGTA	-0.0406
TCGACCAA	-0.102
GCGTAGAC	-0.184
CTGTTACC	-0.121
CTACTTGA	0.069
ATGTGGAC	-0.0214
GCTCTAGA	-0.222
ATGGACGA	0.107
GGCAGCCA	-0.159
CCTTCTTA	-0.0338
CAGATCCC	-0.0247
ATAAGATC	0.0928
CACAACCG	0.222
GGACCGGA	-0.0265
AGGACCGG	-0.294
GAATATCA	0.174
CTGGACGC	-0.175
CGTGAAGA	-0.117
ACCAAAAC	0.127
ATGTCTCC	0.047
ACCGGGAG	-0.322
TAACACTA	0.202
CATTGTAG	0.143

Sequence	PBM E-score
CTTGTTCC	0.00268
GAACACTA	0.0146
ATTGTTTA	0.102
AGGTATTG	0.126
ACGACCTC	0.241
CCTCCAGC	-0.341
ATATACAT	0.16
GAAACTAC	0.031
CGTGTCAG	0.0706
AAATTCCT	-0.101
ATAGTTCG	0.111
CTGTGAAA	0.215
ACGCACGA	0.00465
CAGGCTAG	-0.311
ATAGTAAC	0.182
GGACGCAA	-0.0397
ATGCGTCC	-0.125
ACAGTCAA	-0.0239
CATTGTCG	-0.0797
TCAAAGCA	-0.023
AACACAAA	0.116
ACGTTACT	0.11
AGAGTAAA	0.145
GCGAGCTA	0.107
CGTGCCCC	-0.119

Sequence	PBM E-score
CGCTACGA	0.0464
CTGTGTGC	-0.243
CACAGGAG	-0.0423
CTCGAACC	-0.0919
TAACAGTA	0.135
AGGCCCAG	-0.236
GATAGCCA	-0.0246
CATGCTAC	-0.23
ACTATATA	0.309
CCCGACCC	-0.108
ACCGACAG	-0.155
ACCGAGTC	-0.264
CTGATAAA	0.204
GCTTGCTA	-0.208
AGTTGAGA	-0.0533
CGTCAGTC	-0.0855
GGCGCCAA	0.0115
CGCACACA	-0.0387
AAGTTTCA	0.155
GGCGGCCA	-0.121
ATATTCGG	0.0247
ATTTACGC	0.0814
TATACTAA	0.0615
ACGTGCCA	-0.116
ATCGTCTG	-0.109

Sequence	PBM E-score
CCCGCGGG	0.171
GGACCGTA	-0.287
GCACAGCA	-0.0482
AACAACGT	0.0242
GCACAGAA	0.0345
ACTGGGAC	-0.0335
AGACGATC	-0.112
CATACCAA	0.0761
CTGCGTTC	0.0991
CCGGAGTA	0.0162
GGAAGGTA	-0.116
GAGTAACC	0.0406
GAGGGGCA	-0.283
CTGTATGC	-0.234
GAAAGATC	0.0615
GGGGGGAA	-0.354
CAATGAGG	-0.205
AGTGCTAT	0.0853
CAATAGGC	-0.0915
AAGGCGCA	0.0474
AGAGAAAC	0.00738
CCAATGCA	-0.00952
AACCGGCC	-0.206
GTGACTGA	0.125
GCGAGAAA	-0.0209

Some of the entries so far, as a markdown table:

| Sequence | PBM E-score |
| --- | --- |
| AGCGCATA | 0.138 |
| CATGCGAA | 0.0234 |
| AAGGCGTC | -0.257 |
| AACCACAG | 0.00497 |
| GCCCCACC | 0.172 |
| ACCGAGTC | -0.264 |

Taken from above.
For PBM E-score, GAGTAACC has the entry 0.0406
For PBM E-score, AAGGCGCA has the entry 0.0474
For PBM E-score, GCACAGCA has the entry -0.0482
For PBM E-score, AGAGAAAC has the entry 0.00738
For PBM E-score, GAAAGATC has the entry 0.0615
For PBM E-score, GGGGGGAA has the entry -0.354

Next part.

Sequence	PBM E-score
GTAAACGA	-0.0549
TAACGTCA	0.17
CTGGGGCA	-0.193
AGAACCCC	-0.0371
TGTATGAA	0.076
AACTTCAT	0.0957
GGGATTCA	-0.0282
CCTGTTCG	-0.124
CTCGTATA	-0.00647
ACTGCCTA	-0.0561
AAAAGTAA	0.243
CCACCTCG	-0.147
CCGAAAGG	-0.0852
CACGACGG	0.127
CGATAGCC	-0.0305
AGGTGAAT	0.099
ACATCCAG	0.00276
ATTGAACG	-0.00661
ATCGTTGC	-0.0956
CTGGTAAA	0.0543
GCTATCCC	-0.129
ACGCTTTG	0.0422
CAGCCTAG	0.00584
AAGCAAAT	0.0892
AGGACCAG	-0.0998

Sequence	PBM E-score
ATCACGAG	-0.0696
AGCGTAAG	0.0638
AGCCGCCT	-0.187
GGCACAGA	-0.0865
CGCGGACG	-0.00041
ACTCTGAT	0.0517
ACTGGCGC	0.0509
CCCTTCTA	-0.12
GCAGCGAC	-0.223
GGTTGCCA	-0.021
AGCCCCCG	-0.396
CGCCAACG	-0.1
ACAAGATA	0.136
GGACGGAA	0.0842
CATGTCGC	-0.00929
ACGTCCCA	-0.162
AGCTAGGC	-0.14
ACTGCGAA	-0.0346
AGGGTAGA	-0.207
GGTACGGA	0.0166
CTAAGCGA	0.0261
ATGACTAC	0.036
CCAGTAAG	-0.0267
GCGCAGCA	-0.288
GCTCCTAC	-0.183

Sequence	PBM E-score
CGCTTCTA	-0.0331
GCACACTA	0.0421
TGCTAGCA	0.00216
GCGTTTAA	-0.0302
CCGCCTTC	-0.192
AAGTGCGA	-0.137
CCCGAAGG	-0.0577
CCACTGTC	-0.162
AGTTAAAG	-0.037
ACCATCTG	-0.0954
CCTTCCTA	-0.305
CGCGCGAA	0.111
AGAACGCG	0.0147
CCAGGAAA	0.0733
AAGCGAAA	0.173
GACGGCGA	-0.17
ACATTCCG	0.147
AACGAAGT	-0.148
AACACATG	0.118
CTCAGCAA	0.0669
CAGGGCTA	-0.21
AGTCTATA	-0.18
AATTAAAG	0.0445
ACCGTGGC	-0.199
AATCAAAG	-0.0282

Sequence	PBM E-score
ATGATGAC	0.207
TCATTACA	0.164
CTAAACTC	-0.0293
AGATTACT	0.182
ATTACATA	0.355
GAACAACA	0.0537
AGAAGACG	0.145
CGGGCAGA	0.109
CACTCAAA	0.00096
CAGTGCGG	-0.0534
CTTTCTAC	0.0311
GGGCAATA	0.109
ATATCAGC	0.141
CGACTTTA	-0.0879
TGAATGAA	0.179
AAAGACGG	0.0469
AACGTGTA	-0.0256
GCGGTGTA	-0.0803
CTAGAAAG	0.0796
AGATACCT	0.0206
AGCTCAGA	0.12
CAGGTTCC	0.026
GGTCTTAC	-0.142
ACTTGGCC	-0.0586
ATACAGCC	0.0459

Sequence	PBM E-score
CACCCCGC	-0.121
AATATGGA	-0.0209
ACGCACCT	-0.00098
CCATACCA	0.0193
ATGGACCG	0.0527
CTTGTGAC	-0.0625
CATGGTTC	0.0143
ATTGAGGC	0.0395
CATCAATC	0.14
AGTGTGTG	-0.00063
GAGGAACC	-0.13
CGCCTTCA	-0.292
AACTGGAA	0.0471
CCGCTTGC	-0.0491
GCAGTCCA	0.00721
ATTGTGGG	0.0197
AGCGCGAT	0.172
CTTATCGC	-0.0252
TGGCACCA	-0.206
GACCGCAC	-0.198
ACGGTTCC	-0.0446
AGACGTTC	0.0426
ATGCGCCA	0.0926
GTCAAGAC	-0.183
CCAAACCG	0.00669

Sequence	PBM E-score
ACCTAAAG	-0.0437
GCTCCGAC	-0.226
ATCTGGGC	-0.0822
ATTCTGCA	0.131
ATCGACTA	-0.00461
TATCAGCA	0.124
ACCCAAGG	0.107
TAACGGGA	-0.0562
CAAGATGA	-0.055
ACGGAACT	0.217
ATCGAAAT	0.132
AGAGATCA	0.034
CTGTAATC	0.128
CAAGTTCG	-0.119
ACTCCGTA	0.0453
AGACCAGC	-0.257
CAAGATAA	0.21
ATAATGGG	0.186
ATATGTAA	0.106
CGGACGAC	-0.0643
AACCGCCG	-0.0722
AACAGGAC	-0.0541
AGACAATG	-0.00251
GAGCTACA	-0.141
CATATATA	0.322

Sequence	PBM E-score
AGGGACCC	-0.279
CGCCGTTC	-0.0801
CCTGAGAC	-0.22
ACGATCGG	-0.00454
TCCTTTCA	0.0218
AGTAAAGC	0.129
AAGAAAGT	0.138
AGGTGTCC	-0.182
ACTCACGC	-0.0912
GGTCATCA	0.0568
CATCGTAA	0.0929
ACTCTATA	0.194
GTGCAATA	0.0714
AAATGCGC	0.209
GATAATGA	0.161
GACCCATA	0.222
AACCGTTA	-0.278
CCTCTTAA	0.0263
CATTGCTA	0.205
